{"source": "PubChem BioAssay AID1159584 – Peter MacCallum Cancer Centre | 2016", "aim": "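Genes that CDH1-null MCF10A cells selectively depend on to survive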 (primary screen)", "cell system": "human MCF10A breast epithelial cells, parental and CDH1-null", "knock-down reagent": "siRNA against human genes", "measured": "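ATP luminescence (CellTiter-Glo) viability per line relative to mean mock wells over all plates, and the ratio of CDH1-null to parental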", "scale": "CDH1-null / parental viability ratio: higher = CDH1-null cells survive relatively better than parental; CDH1-null viability vs mock: higher = more viable CDH1-null cells", "units": "CDH1-null viability vs mock in fraction of mock", "note": "In all, the deposit lists about 18,000 reagents; this is a random part of them. Further read-outs or replicates are left out here. No sequences are given here. The record does not give: the amount of reagent, the time to read-out."}
{"gene": "LRRC8E (leucine rich repeat containing 8 VRAC subunit E)", "CDH1-null / parental viability ratio": 0.84, "CDH1-null viability vs mock": 0.69}
{"gene": "SLC30A2", "CDH1-null / parental viability ratio": 1.28, "CDH1-null viability vs mock": 0.73}
{"gene": "CCDC13 (coiled-coil domain containing 13)", "CDH1-null / parental viability ratio": 0.68, "CDH1-null viability vs mock": 0.89}
{"gene": "ANKS3 (ankyrin repeat and sterile alpha motif domain containing 3)", "CDH1-null / parental viability ratio": 0.88, "CDH1-null viability vs mock": 0.51}
{"gene": "SLC38A2", "CDH1-null / parental viability ratio": 0.97, "CDH1-null viability vs mock": 0.73}
{"gene": "ANKHD1-EIF4EBP3 (ANKHD1-EIF4EBP3 readthrough)", "CDH1-null / parental viability ratio": 1.04, "CDH1-null viability vs mock": 0.96}
{"gene": "RALGDS (ral guanine nucleotide dissociation stimulator)", "CDH1-null / parental viability ratio": 0.8, "CDH1-null viability vs mock": 0.48}
{"gene": "SSTR5 (somatostatin receptor 5)", "CDH1-null / parental viability ratio": 1.73, "CDH1-null viability vs mock": 0.76}
{"gene": "APEX1 (apurinic/apyrimidinic endodeoxyribonuclease 1)", "CDH1-null / parental viability ratio": 0.86, "CDH1-null viability vs mock": 0.69}
{"gene": "SMAD5 (SMAD family member 5)", "CDH1-null / parental viability ratio": 0.94, "CDH1-null viability vs mock": 0.88}
{"gene": "TIPARP (TCDD inducible poly(ADP-ribose) polymerase)", "CDH1-null / parental viability ratio": 0.99, "CDH1-null viability vs mock": 0.69}
{"gene": "ZNF624 (zinc finger protein 624)", "CDH1-null / parental viability ratio": 1.07, "CDH1-null viability vs mock": 1.02}
{"gene": "IRF5 (interferon regulatory factor 5)", "CDH1-null / parental viability ratio": 1.03, "CDH1-null viability vs mock": 0.71}
{"gene": "DDHD2 (DDHD domain containing 2)", "CDH1-null / parental viability ratio": 1.35, "CDH1-null viability vs mock": 0.96}
{"gene": "GRK2 (G protein-coupled receptor kinase 2)", "CDH1-null / parental viability ratio": 0.77, "CDH1-null viability vs mock": 0.65}
{"gene": "ANXA2 (annexin A2)", "CDH1-null / parental viability ratio": 1.08, "CDH1-null viability vs mock": 0.84}
{"gene": "HADHB", "CDH1-null / parental viability ratio": 0.96, "CDH1-null viability vs mock": 0.86}
{"gene": "TOLLIP (toll interacting protein)", "CDH1-null / parental viability ratio": 1.25, "CDH1-null viability vs mock": 0.8}

Looked up above:
SMAD5 (SMAD family member 5), CDH1-null / parental viability ratio: 0.94
Entry of RALGDS (ral guanine nucleotide dissociation stimulator) in “CDH1-null viability vs mock”: 0.48
For “CDH1-null viability vs mock”, ANXA2 (annexin A2) reads 0.84
Entry of SLC38A2 in “CDH1-null viability vs mock”: 0.73
For “CDH1-null viability vs mock”, SSTR5 (somatostatin receptor 5) shows 0.76
Value for ANKHD1-EIF4EBP3 (ANKHD1-EIF4EBP3 readthrough) under “CDH1-null / parental viability ratio”: 1.04

Continued:
{"gene": "DNAJC6 (DnaJ heat shock protein family (Hsp40) member C6)", "CDH1-null / parental viability ratio": 1, "CDH1-null viability vs mock": 0.53}
{"gene": "APOB (apolipoprotein B)", "CDH1-null / parental viability ratio": 0.76, "CDH1-null viability vs mock": 0.62}
{"gene": "NDUFB4 (NADH:ubiquinone oxidoreductase subunit B4)", "CDH1-null / parental viability ratio": 0.76, "CDH1-null viability vs mock": 0.6}
{"gene": "RELA (RELA proto-oncogene, NF-kB subunit)", "CDH1-null / parental viability ratio": 0.83, "CDH1-null viability vs mock": 0.5}
{"gene": "OR11H12 (olfactory receptor family 11 subfamily H member 12)", "CDH1-null / parental viability ratio": 0.94, "CDH1-null viability vs mock": 0.47}
{"gene": "ZNF567 (zinc finger protein 567)", "CDH1-null / parental viability ratio": 1, "CDH1-null viability vs mock": 0.57}
{"gene": "SCML1 (Scm polycomb group protein like 1)", "CDH1-null / parental viability ratio": 0.87, "CDH1-null viability vs mock": 0.71}
{"gene": "ARRDC1-AS1 (ARRDC1 antisense RNA 1)", "CDH1-null / parental viability ratio": 0.76, "CDH1-null viability vs mock": 0.75}
{"gene": "POC5 (POC5 centriolar protein)", "CDH1-null / parental viability ratio": 0.7, "CDH1-null viability vs mock": 0.6}
{"gene": "CFAP263 (cilia and flagella associated protein 263)", "CDH1-null / parental viability ratio": 1.36, "CDH1-null viability vs mock": 0.3}
{"gene": "OR5M9 (olfactory receptor family 5 subfamily M member 9)", "CDH1-null / parental viability ratio": 1.21, "CDH1-null viability vs mock": 0.82}
{"gene": "TMEM214 (transmembrane protein 214)", "CDH1-null / parental viability ratio": 0.96, "CDH1-null viability vs mock": 1}
{"gene": "ARHGEF12 (Rho guanine nucleotide exchange factor 12)", "CDH1-null / parental viability ratio": 0.93, "CDH1-null viability vs mock": 0.79}
{"gene": "CFB (complement factor B)", "CDH1-null / parental viability ratio": 1.11, "CDH1-null viability vs mock": 0.9}
{"gene": "HLA-DQB1 (major histocompatibility complex, class II, DQ beta 1)", "CDH1-null / parental viability ratio": 1.12, "CDH1-null viability vs mock": 0.91}
{"gene": "CCND1 (cyclin D1)", "CDH1-null / parental viability ratio": 0.81, "CDH1-null viability vs mock": 0.58}
{"gene": "ELP2 (elongator acetyltransferase complex subunit 2)", "CDH1-null / parental viability ratio": 0.81, "CDH1-null viability vs mock": 0.78}
